{"source": "the supplement of paper PMC8104966", "note": "Some of the results follow. Single values are uncertain here, since repeats match poorly.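 U2OS cells carrying ACE2 were mixed with U2OS cells carrying full-length spike, and fusion was scored by imaging as the share of nuclei showing both cell types' fluorescent markers. A compound counts as an inhibitory hit when it is non-toxic and its fusion z-score falls below -3, meaning more than three standard deviations below the plate's DMSO wells.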", "data": [{"test_system": "U2OS ACE2 x SARS-CoV-2 spike co-culture", "experiment": "cell-cell fusion (fraction fused) z-score vs plate DMSO control; higher = more fusion", "conditions": "30 µM; 5 h; toxicity class: non-toxic, passed QC", "values": [{"smiles": "Cc1cn2cc(C(=O)N(C)CCO)cc(N[C@@H]3CCOc4cccc(C)c43)c2n1", "cell-cell fusion (z-score)": "inactive: 3.04"}, {"smiles": "Nc1ccc(C(=O)NCC(=O)O)cc1", "cell-cell fusion (z-score)": "inactive: 3.92"}, {"smiles": "O=c1onc2n1-c1cc(Br)ccc1OC2", "cell-cell fusion (z-score)": "inactive: 3.73"}, {"smiles": "NC(=O)c1ncn([C@@H]2O[C@@H](CO)[C@@H](O)[C@H]2O)c1N", "note": "[Acadesine]", "cell-cell fusion (z-score)": "inactive: 2.1"}, {"smiles": "NC(CCP(=O)(O)O)C(=O)O", "note": "(racemic) [(±)-2-Amino-4-phosphonobutyric acid]", "cell-cell fusion (z-score)": "inactive: 2.68"}, {"smiles": "Cl.O=C(O)CCC1NCC2CC1CN1CCCCC21", "note": "(configuration not stated)", "cell-cell fusion (z-score)": "inactive: 3.13"}, {"smiles": "CCC(C)C(=O)O[C@@H]1C[C@@]2(C)[C@H](c3ccoc3)OC(=O)CC23OC2(C)O[C@]14[C@]1(C)[C@@H](CC(=O)OC)C5(C)CC1(O)[C@](O)(C5OC(=O)C1(C)OC1C)[C@@H](OC(C)=O)[C@]34O2", "note": "(some centres not stated)", "cell-cell fusion (z-score)": "inactive: 0.0464"}, {"smiles": "NCCCC[C@H](N)C(=O)O", "note": "[lysine]", "cell-cell fusion (z-score)": "inactive: 1.22"}, {"smiles": "Cc1scc2c1N(C(=O)CN1CCN(C)CC1)c1ccccc1NC2=O.Cl", "cell-cell fusion (z-score)": "inactive: -0.916"}, {"smiles": "CCC(=O)N1CCN(C(=O)c2ccccc2)CC1", "cell-cell fusion (z-score)": "inactive: 1.93"}, {"smiles": "Cc1ccc(C(=O)Nc2cccc(C(F)(F)F)c2)cc1Nc1nc(-c2cccnc2)nc2c1cnn2C", "cell-cell fusion (z-score)": "inactive: 0.771"}, {"smiles": "CC1COc2c(N3CCN(C)CC3)c(F)cc3c(=O)c(C(=O)O)cn1c23", "note": "(configuration not stated) [Ofloxacin]", "cell-cell fusion (z-score)": "inactive: 2.87"}, {"smiles": "CCC(C(=O)[O-])c1ccccc1.[Na+]", "note": "(configuration not stated)", "cell-cell fusion (z-score)": "inactive: 4.59"}, {"smiles": "Nc1nc(=O)c2c([nH]1)NCC(CNc1ccc(C(=O)N[C@@H](CCC(=O)[O-])C(=O)[O-])cc1)N2C=O.[Ca+2]", "note": "(some centres not stated) [Calcium folinate]", "cell-cell fusion (z-score)": "inactive: 3.69"}, {"smiles": "CCCCCCCCCC(=O)NC(CN1CCOCC1)[C@H](O)c1ccccc1.Cl", "note": "(mixture of isomers)", "cell-cell fusion (z-score)": "inactive: 0.405"}, {"smiles": "O=c1[nH]cc(F)c(=O)[nH]1", "note": "[Fluorouracil]", "cell-cell fusion (z-score)": "inactive: 2.25"}, {"smiles": "CCNC(=O)Nc1ccc(-c2nc3c(c(N4CCOC[C@@H]4C)n2)CCN(C2COC2)C3)cc1", "cell-cell fusion (z-score)": "inactive: 0.916"}, {"smiles": "CN1C2CCCC1CC(NC(=O)c1nn(C)c3ccccc13)C2.Cl", "note": "(configuration not stated) [Granisetron hydrochloride]", "cell-cell fusion (z-score)": "inactive: 1.04"}, {"smiles": "COC(=O)C[C@H]1C(C)(C)[C@@H](O)[C@@H]2CC3=C4C=C(OC)O[C@@H](c5ccoc5)[C@]4(C)CCC3[C@@]1(C)C2=O", "note": "(stereo partly drawn) [3-DEOXO-3beta-HYDROXYMEXICANOLIDE 16-ENOL ETHER]", "cell-cell fusion (z-score)": "inactive: 2.32"}, {"smiles": "[Na+].CO[C@@H]1[C@@H](OC(N)=O)[C@@H](O)[C@H](Oc2ccc3c([O-])c(NC(=O)c4ccc(O)c(C\\C=C(\\C)C)c4)c(=O)oc3c2C)OC1(C)C", "note": "[Novobiocin Sodium]", "cell-cell fusion (z-score)": "inactive: 3.48"}, {"smiles": "Nc1ncnc2c1nc(Sc1ccc(Cl)cc1)n2C1OC2CO[P@@](=O)([O-])O[C@@H]2[C@@H]1O.[Na+]", "note": "(some centres not stated) [8-(4-Chlorophenylthio)-cAMP sodium]", "cell-cell fusion (z-score)": "inactive: 1.87"}, {"smiles": "COC(=O)[C@H]1[C@H]2C[C@H]3c4[nH]c5ccccc5c4CCN3C[C@H]2CC[C@@H]1O.Cl", "cell-cell fusion (z-score)": "inactive: 3.74"}, {"smiles": "CC(C)(S)C(N)C(=O)O", "note": "(racemic) [DL-Penicillamine]", "cell-cell fusion (z-score)": "inactive: 1.82"}, {"smiles": "CCCCCCCCNC(C)C(O)c1ccc(SC(C)C)cc1", "note": "(configuration not stated)", "cell-cell fusion (z-score)": "inactive: 3.1"}, {"smiles": "CC(=O)c1ccc(S(=O)(=O)NC(=O)NC2CCCCC2)cc1", "note": "[Acetohexamide]", "cell-cell fusion (z-score)": "inactive: 3.4"}, {"smiles": "CC(=O)O[C@H]1C[C@@H](OC(C)=O)C(C)(C)C2CC(=O)[C@]3(C)C(CC[C@@]4(C)[C@H](c5ccoc5)OC(=O)[C@H]5O[C@]543)[C@]21C", "note": "(some centres not stated)", "cell-cell fusion (z-score)": "inactive: 2.88"}, {"smiles": "COc1cc(N2CCC(N3CCN(C)CC3)CC2)ccc1Nc1ncc(Cl)c(Nc2ccccc2S(=O)(=O)C(C)C)n1", "cell-cell fusion (z-score)": "inactive: 1.35"}, {"smiles": "COc1cc(NC(C)CCCN)c2ncccc2c1.O=P(O)(O)O.O=P(O)(O)O", "note": "(configuration not stated)", "cell-cell fusion (z-score)": "active: -4.49"}, {"smiles": "C[C@]12CCC3C(CC[C@H]4C[C@H](O)CC[C@]34C)C1CC[C@@H]2C(=O)CO", "note": "(stereo partly drawn) [3-alpha,21-Dihydroxy-5-alpha-pregnan-20-one]", "cell-cell fusion (z-score)": "inactive: 2.75"}, {"smiles": "CC1(C)O[C@@H]2CC3C4C[C@H](F)C5=CC(=O)C=C[C@]5(C)[C@@]4(F)[C@@H](O)C[C@]3(C)[C@]2(C(=O)CO)O1", "note": "(some centres not stated)", "cell-cell fusion (z-score)": "inactive: 0.391"}, {"smiles": "CC(N)c1cccc(Cl)c1Cl.Cl", "note": "(racemic) [(±)-2,3-Dichloro-alpha-methylbenzylamine hydrochloride]", "cell-cell fusion (z-score)": "inactive: 3.35"}, {"smiles": "Cc1ccc(-c2cc(C(F)(F)F)nn2-c2ccc(S(N)(=O)=O)cc2)cc1", "note": "[Celecoxib]", "cell-cell fusion (z-score)": "inactive: 0.487"}, {"smiles": "CC1=C(/C=C/C(C)=C/C=C/C(C)=C/C=C/C=C(C)/C=C/C=C(C)/C=C/C2=C(C)C(=O)C(O)CC2(C)C)C(C)(C)CC(O)C1=O", "note": "(configuration not stated)", "cell-cell fusion (z-score)": "inactive: 2.59"}, {"smiles": "CN(C)Cc1c[nH]c2ccccc12", "cell-cell fusion (z-score)": "inactive: 2.04"}, {"smiles": "COc1cccc2c1CCCC2CCCN1CCN(C2CCCCC2)CC1.Cl.Cl", "note": "(configuration not stated) [PB 28 dihydrochloride]", "cell-cell fusion (z-score)": "inactive: 0.633"}, {"smiles": "Nc1ncn([C@H]2C[C@H](O)[C@@H](CO)O2)c(=O)n1", "note": "[Decitabine]", "cell-cell fusion (z-score)": "inactive: 1.8"}, {"smiles": "Nc1ccc(O)c(C(=O)O)c1", "note": "[Mesalamine]", "cell-cell fusion (z-score)": "inactive: 1.38"}, {"smiles": "Nc1nc(=O)[nH]cc1F", "cell-cell fusion (z-score)": "inactive: 1.39"}, {"smiles": "CC(C)(C(=O)c1cccnc1)c1cccnc1", "note": "[Metyrapone]", "cell-cell fusion (z-score)": "inactive: 1.65"}, {"smiles": "CN1CC(=O)NC1=N", "cell-cell fusion (z-score)": "inactive: 0.115"}, {"smiles": "C[C@]1(Cn2ccnn2)C(C(=O)O)N2C(=O)CC2S1(=O)=O", "note": "(some centres not stated)", "cell-cell fusion (z-score)": "inactive: 1.58"}, {"smiles": "Nc1nc(=O)c(Br)c(-c2ccccc2)[nH]1", "note": "[Bropirimine]", "cell-cell fusion (z-score)": "active: -6.01"}, {"smiles": "Cl.Cl.c1ccc(C(NCCNC(c2ccccc2)c2ccccc2)c2ccccc2)cc1", "cell-cell fusion (z-score)": "inactive: 2.97"}, {"smiles": "C/C=N/N(C)C=O", "cell-cell fusion (z-score)": "inactive: 1.86"}, {"smiles": "Cl.Nc1c(Br)cc(Br)cc1CNC1CCC(O)CC1", "note": "(configuration not stated)", "cell-cell fusion (z-score)": "inactive: 1.45"}, {"smiles": "COc1c(C)c2c(c(O)c1C/C=C(\\C)CCC(=O)O)C(=O)OC2", "cell-cell fusion (z-score)": "inactive: 4.98"}, {"smiles": "C[C@]12CCC(=O)C=C1C=CC1C2CC[C@@]2(C)C1CC[C@@]2(O)CCC(=O)[O-].[K+]", "note": "(some centres not stated)", "cell-cell fusion (z-score)": "inactive: 3.61"}, {"smiles": "CN1C(C(=O)Nc2ccccn2)=C(O)c2ccccc2S1(=O)=O", "note": "[Piroxicam]", "cell-cell fusion (z-score)": "inactive: 4.48"}, {"smiles": "CC1=C(/C=C/C(C)=C/C=C/C(C)=C/C=C/C=C(C)/C=C/C=C(C)/C=C/C2=C(C)C(=O)CCC2(C)C)C(C)(C)CCC1=O", "note": "[CANTHAXANTHIN (euglenanone)]", "cell-cell fusion (z-score)": "inactive: 2.58"}, {"smiles": "COc1cc(/C=C/C(N)=O)cc(OC)c1OC", "cell-cell fusion (z-score)": "inactive: -0.354"}, {"smiles": "CC(C)C[C@@H](C(=O)N[C@H](C(=O)OC1CCCC1)c1ccccc1)[C@H](O)C(=O)NO", "note": "[Tosedostat (CHR2797)]", "cell-cell fusion (z-score)": "inactive: 0.485"}, {"smiles": "O=C(O)c1nn(Cc2ccc(Cl)cc2Cl)c2ccccc12", "note": "[Lonidamine]", "cell-cell fusion (z-score)": "inactive: 1.83"}, {"smiles": "CN(C)CC[C@@H](c1ccc(Cl)cc1)c1ccccn1.O=C(O)/C=C\\C(=O)O", "cell-cell fusion (z-score)": "inactive: 0.834"}, {"smiles": "NC(=O)CC[C@H](N)C(=O)O", "note": "[L-Glutamine]", "cell-cell fusion (z-score)": "inactive: 0.534"}, {"smiles": "CS(=O)(=O)c1ccc(C(O)[C@H](CF)NC(=O)C(Cl)Cl)cc1", "note": "(some centres not stated)", "cell-cell fusion (z-score)": "inactive: -0.201"}, {"smiles": "COc1cccc(O)c1O", "cell-cell fusion (z-score)": "inactive: 1.25"}, {"smiles": "COCCCOc1cc(C[C@@H](C[C@H](N)[C@@H](O)C[C@H](C(=O)NCC(C)(C)C(N)=O)C(C)C)C(C)C)ccc1OC.COCCCOc1cc(C[C@@H](C[C@H](N)[C@@H](O)C[C@H](C(=O)NCC(C)(C)C(N)=O)C(C)C)C(C)C)ccc1OC.O=C(O)/C=C/C(=O)O", "note": "[Aliskiren hemifumarate]", "cell-cell fusion (z-score)": "inactive: 3.15"}, {"smiles": "COc1cc2c(cc1-c1cc3cc4ccoc4cc3oc1=O)OCO2", "cell-cell fusion (z-score)": "inactive: 3.05"}, {"smiles": "Cc1cc2c(s1)Nc1ccccc1N=C2N1CCN(C)CC1", "cell-cell fusion (z-score)": "inactive: -1.05"}, {"smiles": "COc1c(CC(=O)c2cc3c(cc2O)OC(C)(C)C(O)C3)ccc2c1C=CC(C)(C)O2", "note": "(configuration not stated)", "cell-cell fusion (z-score)": "inactive: 1.93"}, {"smiles": "CC[C@H]1CN2CCc3cc(OC)c(OC)cc3C2C[C@@H]1CC1NCCc2cc(OC)c(OC)cc21.Cl.Cl", "note": "(some centres not stated)", "cell-cell fusion (z-score)": "inactive: 1.38"}, {"smiles": "CCCCCCCCCCCCCCCC(=O)NCCO", "cell-cell fusion (z-score)": "inactive: 1.99"}, {"smiles": "CCCCC(=O)N(Cc1ccc(-c2ccccc2-c2nn[n-]n2)cc1)[C@H](C(=O)[O-])C(C)C.CCCCC(=O)N(Cc1ccc(-c2ccccc2-c2nn[n-]n2)cc1)[C@H](C(=O)[O-])C(C)C.CCOC(=O)[C@H](C)C[C@@H](Cc1ccc(-c2ccccc2)cc1)NC(=O)CCC(=O)[O-].CCOC(=O)[C@H](C)C[C@@H](Cc1ccc(-c2ccccc2)cc1)NC(=O)CCC(=O)[O-].O.O.O.O.O.[NaH+].[NaH+].[NaH+].[NaH+].[NaH+].[NaH+]", "cell-cell fusion (z-score)": "inactive: 3.15"}, {"smiles": "COc1ccc2c(c1)c(CC(=O)O)c(C)n2Cc1ccc(Cl)cc1", "note": "[1-(4-Chlorobenzyl)-5-methoxy-2-methylindole-3-acetic acid]", "cell-cell fusion (z-score)": "inactive: 4.13"}, {"smiles": "O=C(O)CCC(=O)Nc1ccc(S(=O)(=O)Nc2nccs2)cc1", "cell-cell fusion (z-score)": "inactive: 1.91"}, {"smiles": "CC(=O)Nc1ccccc1", "cell-cell fusion (z-score)": "inactive: 1.29"}, {"smiles": "CCOC(=O)OC(C)OC(=O)C1N2C(=O)C(NC(=O)[C@H](N)c3ccccc3)C2SC1(C)C.Cl", "note": "(some centres not stated)", "cell-cell fusion (z-score)": "inactive: 2.89"}]}]}
